These are yes or no findings as the source states them, for the method shown. Binding seen in cells or lysates may run through a third protein. Some entries that bind do so weakly or less than the wild type.
Columns and labels:
[1] = molecular target: elongation factor EF-Tu (E. coli) (UniProt P0CE47); assay: co-purification on HiTrap Q anion exchange and HiTrap SP cation exchange columns, SDS-PAGE
[2] = molecular target: elongation factor EF-Ts (E. coli) (UniProt P0A6P1); assay: as above

The chains behind the UniProt entries cited, without tags or fusion partners. Residues count along the entry.
UniProt P0CE47, residues 2-394: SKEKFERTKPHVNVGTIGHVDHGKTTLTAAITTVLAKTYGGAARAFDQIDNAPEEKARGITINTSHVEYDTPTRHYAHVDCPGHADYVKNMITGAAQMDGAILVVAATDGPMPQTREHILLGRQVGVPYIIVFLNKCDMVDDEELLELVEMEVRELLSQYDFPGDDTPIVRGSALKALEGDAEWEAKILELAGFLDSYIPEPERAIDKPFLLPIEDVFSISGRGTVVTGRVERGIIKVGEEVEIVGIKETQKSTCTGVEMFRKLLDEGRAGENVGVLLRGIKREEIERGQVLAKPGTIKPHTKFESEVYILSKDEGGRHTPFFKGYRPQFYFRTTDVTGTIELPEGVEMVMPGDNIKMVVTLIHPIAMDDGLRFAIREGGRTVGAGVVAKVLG
UniProt P0A6P1, residues 2-283: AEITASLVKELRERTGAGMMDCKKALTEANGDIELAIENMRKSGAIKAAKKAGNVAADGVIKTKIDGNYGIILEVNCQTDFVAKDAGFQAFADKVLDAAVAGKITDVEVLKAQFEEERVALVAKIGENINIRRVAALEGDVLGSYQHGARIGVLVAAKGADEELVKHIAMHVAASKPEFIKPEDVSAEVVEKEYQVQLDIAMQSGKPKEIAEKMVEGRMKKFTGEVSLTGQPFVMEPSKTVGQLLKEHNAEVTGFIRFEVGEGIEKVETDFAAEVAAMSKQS
UniProt P14647: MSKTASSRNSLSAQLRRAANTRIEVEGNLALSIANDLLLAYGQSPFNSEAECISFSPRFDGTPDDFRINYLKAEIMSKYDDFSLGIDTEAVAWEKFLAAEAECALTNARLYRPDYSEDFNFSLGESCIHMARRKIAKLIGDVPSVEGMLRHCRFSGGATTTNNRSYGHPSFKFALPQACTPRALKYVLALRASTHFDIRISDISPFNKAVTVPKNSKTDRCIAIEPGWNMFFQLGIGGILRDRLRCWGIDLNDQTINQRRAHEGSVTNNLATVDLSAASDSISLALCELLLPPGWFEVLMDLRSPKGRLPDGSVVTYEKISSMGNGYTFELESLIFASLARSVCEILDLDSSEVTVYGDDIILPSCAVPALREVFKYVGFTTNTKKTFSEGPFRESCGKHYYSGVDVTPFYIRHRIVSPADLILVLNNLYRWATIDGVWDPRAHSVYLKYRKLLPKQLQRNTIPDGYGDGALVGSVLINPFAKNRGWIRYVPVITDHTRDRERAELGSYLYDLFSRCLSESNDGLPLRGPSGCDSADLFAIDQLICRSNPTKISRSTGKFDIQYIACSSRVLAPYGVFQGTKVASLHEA

binding [1]: binds
binding [2]: binds
Substance: Qβ replicase β subunit (from UniProt P14647 1-589) (enzyme)
